Laboratory results from patent publication US20170129920 (published 2017).

Test: general procedure: solution-phase peptide synthesis; TBTU / N-methylmorpholine

Row | Substance | final purity (method not given) (coupling step, acetate salt (3AcOH)) | final purity (method not given) (late stage modification step, acetate)
1 | Z-D-Arg-Dmt(Bzl)-Lys(Z)-Phe-NH2 | close to 99% | 
2 | H-D-Arg-DMeTyr-Lys-Phe-NH2.3AcOH |  | higher than 98.5%
